According to PMC11415492 (Nature Communications, 2024):
“And” between values parts separate entries of the source, which are not always exact repeats. Identical values can stand only once. Counter-ions that a name gives are not always drawn. The source gives many values for each of these; only a part stands here.

System: male Fisher F-344 rats
Test: Morphine intravenous self-administration
Type: in vivo, rat
Conditions: 40 mg/kg

SMILES: CCC1CC2CC3c4[nH]c5ccc(O)cc5c4CCN(C2)C13 (centres unmarked) [Noribogaine, Noribogaine hydrochloride]
- self-administration per session, individual animals (Fig. S9a) (session 3): 23
- self-administration per session, individual animals (Fig. S9a) (session 4): 15 and 28 and 50 (3×) and 21 and 24 and 23
